From PubChem BioAssay AID1259415 (National Center for Advancing Translational Sciences (NCATS), 2018)
The campaign covered roughly 410,000 compounds. About 18,000 (4.4%) were called active. The shares of active, inactive and inconclusive entries below differ from those in the screen. Cut-off read from the data, not from the text of the source: active = activity change below about -60%; inconclusive = no clear call, values can overlap the other calls; inactive = above about -39%.

Test: qHTS Assay for inhibitors of the human cytomegalovirus (HCMV)
Details: HFF cells, HCMV-luciferase reporter, 72 h; at 57.5 µM; hits give low values
How it was run: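 Compounds were evaluated in HFFs infected with an HCMV luciferase reporter virus (MOI 1 PFU/cell). Luciferase in lysates collected 72 h post infection served as the replication measure.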
% is set by controls: 0 for no effect and ±100 for the full control effect.

Row | Structure (SMILES) | activity change, negative = inhibition
1 | CSc1ccc(S(=O)(=O)NC(C)c2ccccc2)cc1 (stereo not given) | inconclusive: -53.3%
2 | NS(=O)(=O)c1ccc(NC(=O)c2cc(-c3cc(Cl)ccc3O)n[nH]2)cc1 | inconclusive: -56.2%
3 | CC(C)(C)c1ccc(C(=O)N2CCC(=O)N(C(CO)Cc3ccccc3)CC2)cc1 (stereo not given) | inconclusive: -52.7%
4 | O=C(COC(=O)C1=COCCO1)NC1CCCCC1 | inactive: -10.5%
5 | COc1ccc(NS(=O)(=O)c2cc(NC(=O)c3cccc(OCc4c(C)noc4C)c3)ccc2OC)cc1 | active: -64.8%
6 | CCC(C(=O)Nc1ccc2c(c1)OCCO2)n1c(=O)[nH]c2ccccc2c1=O (stereo not given) | active: -73.2%
7 | Cc1cc(NC(=S)N(CCN2CCCCC2)Cc2ccco2)ccc1Cl | inconclusive: -60%
8 | CCNC(=O)C(=O)Nc1ccc2c(c1)N(S(=O)(=O)c1cccs1)CCC2 | inactive: -5.38%
9 | c1ccc2c(c1)CCN(c1ncnc3c1[nH]c1ccccc13)C2 | active: -66.2%
10 | O=C(CCS(=O)(=O)c1ccccc1)Nc1ccc(S(=O)(=O)Nc2ncccn2)cc1 | inconclusive: -50.4%
11 | CC(=O)NCCNc1nc2c(-c3cccc(C)c3)nnn2c2ccccc12 | inactive: -17.9%
12 | O=C(CN1CCOCC1)N1CCCc2c1c(=O)oc1ccc(OCc3ccccc3)cc21 | inconclusive: -49.3%
13 | Cc1[nH]n(C2=NCCS2)c(=O)c1N=Nc1cccc(C(F)(F)F)c1 | inconclusive: -55.6%
14 | Cc1ccc(C(=O)c2cnc3ccccc3c2-c2ccccc2)cc1 | inconclusive: -45.7%
15 | C=C(C)CNC(=S)N/N=C(\C)c1ccc(Cl)s1 | inconclusive: -49.1%
16 | O=C(CCNC(=O)c1ccccc1Cl)Nc1cc(C(F)(F)F)ccc1N1CCCC1 | inconclusive: -56.7%
17 | CC1(C)CC(N2CCN(c3ccccc3)CC2)=CC(=[N+]2CCCC2)C1 | active: -98.3%
18 | CCOC(=O)c1c(-c2ccccc2)csc1NC(=O)c1cc2ccccc2oc1=O | inconclusive: -47.3%
19 | Cc1cccc(NC(=O)c2ccc(S(=O)(=O)N3CCCCCC3)cc2)n1 | inactive: -21.7%
20 | COc1ccc(-c2ccc3c(c2)C2CC3CCN2S(=O)(=O)c2ccccc2C)cc1 (stereo not given) | inconclusive: -49.7%
21 | Cc1ccc(S(=O)(=O)NCCC(=O)N2CCC(C)CC2)cc1 | inactive: 18%
22 | O=C(Nc1ccc(F)cc1)c1nc[nH]c1C(=O)Nc1ccccc1[N+](=O)[O-] | inconclusive: -54%

Retrieved by structure from the list above (3):
Row | Structure (SMILES) | activity change, negative = inhibition
5 | COc1ccc(NS(=O)(=O)c2cc(NC(=O)c3cccc(OCc4c(C)noc4C)c3)ccc2OC)cc1 | active: -64.8%
4 | O=C(COC(=O)C1=COCCO1)NC1CCCCC1 | inactive: -10.5%
19 | Cc1cccc(NC(=O)c2ccc(S(=O)(=O)N3CCCCCC3)cc2)n1 | inactive: -21.7%

Following part.

Row | Structure (SMILES) | activity change, negative = inhibition
23 | O=C1c2ccc(Cl)cc2S(=O)(=O)c2cccc(C(=O)N3CCN(c4ccc(Cl)cn4)CC3)c21 | inconclusive: -41.9%
24 | O=C(Cc1cccc(NC(=O)C2CCN(C(=O)CCc3ccccc3)CC2)c1)Nc1cccc(C(=O)N2CCCC2)c1 | inactive: 45.3%
25 | O=C(NCC1CCN(c2ccc(S(=O)(=O)N3CCOCC3)cc2)CC1)Nc1ccccc1 | inconclusive: -42.9%
26 | CCc1cccc(NC(=O)C2CCN(S(=O)(=O)c3cccc(-c4noc(C)n4)c3)CC2)c1 | active: -61%
27 | CCc1cc2c(SCc3nc4sc(C(C)=O)c(C)c4c(=O)[nH]3)ncnc2s1 | inconclusive: -47.1%
28 | CCN1CCN(c2cc(C)c3cc(NC(=O)c4ccc(OC)c(OC)c4)ccc3n2)CC1 | inconclusive: -47.2%
29 | CCOc1ccc(-c2nnc(-c3ccncc3)o2)cc1OCC | inconclusive: -41.4%
30 | COc1ccc(C2CC(=O)C=C(O)C2)cc1 (stereo not given) | inconclusive: -47%
31 | O=C(NCC1CCCN(Cc2ccccc2F)C1)c1cccc(C(F)(F)F)c1 (stereo not given) | inconclusive: -56.6%
32 | CC(C)(C)c1ccc(CC(=O)N2CCC2(C)C(=O)Nc2cnc3ccccc3c2)cc1 (stereo not given) | inconclusive: -44.9%
33 | Cn1c(-c2ccc(Cl)nc2)nc2cc(Cl)ccc21 | inconclusive: -52.2%
34 | O=C(CSc1nc2ccccc2c(=O)n1CC1CCCO1)NCc1ccccc1 (stereo not given) | inactive: 12.4%
35 | COC(=O)c1c(NC(=O)C(=O)N2CCCC2)sc2c1CC(C)(C)OC2 | inconclusive: -45.5%
36 | COc1ccccc1-n1c(/C=C/c2ccccn2)nc2ccccc2c1=O | active: -101%
37 | Oc1ccc(C[C@H]2CNCCN2CCCCC2CCCCC2)cc1 | inconclusive: -42.6%
38 | COc1ccc(N2CCN(C(=O)Nc3ccc(S(=O)(=O)N(C)C)cc3)CC2)cc1 | inconclusive: -42.6%
39 | CCOC(=O)c1c(C)oc2ccc(OC(=O)c3cccs3)cc12 | inconclusive: -45.8%
40 | C=CCNC(=O)Cc1c(OC)ccc2cc(Br)ccc12 | inactive: -32.1%
41 | CCc1ccc(C(=O)OCC(=O)c2c(N)n(CC(C)C)c(=O)n(C)c2=O)cc1 | active: -64.8%
42 | COCCCNC(=O)c1ccc(C2SCC(=O)N2Cc2ccco2)cc1 (stereo not given) | inactive: -18.3%
43 | CCOc1ccc(NC(=S)N(CCc2c(C)[nH]c3ccc(C)cc23)Cc2cccnc2)cc1 | inconclusive: -56.6%
44 | Cc1cc(C(=O)NC2CCCc3c2cnn3-c2ccc(C(C)(C)C)cc2)nn1C (stereo not given) | active: -78.5%

Row | Structure (SMILES) | activity change, negative = inhibition
45 | Cc1ccc2oc(=O)c3cnn(CC(=O)NCCCOC(C)C)c3c2c1 | inconclusive: -55.9%
46 | COc1ccc(OCCCC(=O)NCCc2nc3ccccc3[nH]2)cc1 | inconclusive: -50.6%
47 | O=C(CSc1nnc2c(n1)[nH]c1ccccc12)N1CCCCC1 | inconclusive: -46.1%
48 | CCCN1CCN(CCCNC(=O)c2c(C)nn(-c3ccc(F)cc3)c2-n2cccc2)CC1 | inconclusive: -48.5%
49 | CCOc1ccc(CNC(=O)Cn2c(=O)c3cccn3c3ccccc32)cc1 | inconclusive: -51.4%
50 | Cc1ccc(S(=O)(=O)N(CC(=O)NCc2ccncc2)Cc2ccccc2F)cc1 | inconclusive: -46.2%
51 | Cc1cc([N+](=O)[O-])c2[nH]c(C(=O)N/N=C/c3ccccc3C(=O)O)c(-c3ccccc3)c2c1 | active: -80.2%
52 | N#C/C(=C/c1ccc(-c2ccc(Br)cc2)o1)C(=O)NC1CCCCC1 | inconclusive: -41.1%
53 | C=CCn1c(O)c(N=NC(=O)OC(C)(C)C)c2ccccc21 | inconclusive: -48.3%
54 | [O-][n+]1c2c(nn1-c1ccccc1)/C(=N/O)CCC2 | inconclusive: -47.1%
55 | COc1ccc(NC2(C#N)CCCCC2)cc1 | inconclusive: -40.9%
56 | CCOC(=O)N1CCC(=NNc2nc(C)cc(=O)[nH]2)CC1 | inconclusive: 0%
58 | Cc1ccc(N(CC(=O)Nc2ccc(F)cc2)S(=O)(=O)N2CCCC2)cc1 | inconclusive: -40.5%
59 | COc1ccc(CNC(=O)c2cc(C3CC3)on2)cc1 | inactive: 62.1%
60 | O=C(Nc1ccc(C2=NCCN2)cc1)c1ccc(C(=O)Nc2ccc(C3=NCCN3)cc2)c([N+](=O)[O-])c1 | inconclusive: -44.7%
61 | CN(C)CCNC(=O)c1ccc2c(c1)N(Cc1c(F)cccc1Cl)C(=O)c1ccccc1S2 | inconclusive: -49.2%
62 | COc1ccc(NS(=O)(=O)c2cc(NC(=O)c3cnccn3)ccc2N2CCCC2)cc1 | inconclusive: -49.9%
63 | CC1(C)CN=c2s/c(=C\c3ccc(Cl)cc3)c(=O)n2C1 | inconclusive: -46.5%
64 | CC(C)C[C@H]1COc2cc(N(C)CCO)ccc2S(=O)(=O)N1 | inconclusive: -42.8%
65 | CN(C)c1cc(Nc2ccc(O)cc2)c([N+](=O)[O-])c2nonc12 | inconclusive: -45.5%
66 | COCCNC(=O)CCCn1c(=O)c2cc(OC)c(OC)cc2n(CC(=O)c2ccc(Cl)cc2)c1=O | inactive: -25%

Row | Structure (SMILES) | activity change, negative = inhibition
67 | Cc1cc(C)c(NC(=O)Cn2c(=O)n(Cc3ccc(C(=O)NCc4ccco4)cc3)c(=O)c3sccc32)c(C)c1 | active: -75.6%
68 | COc1ccccc1/C=C/C1NC(=O)NC(C)=C1C(=O)OC(C)C (stereo not given) | inactive: -12%
69 | CCN1CCN(c2nnc(-c3ccc(F)cc3)c3ccccc23)CC1 | inactive: 12.7%
70 | CCOc1ccc(CN(C)CC(=O)NCc2ccc(F)cc2)cc1 | inconclusive: -46.9%
71 | CCC(C)(C)NC(=O)C(c1cccn1C)N(C(=O)Cn1nnc2ccccc21)c1ccc(NC(C)=O)cc1 (stereo not given) | inconclusive: -58.8%
72 | COc1cccc(CNC(=O)c2oc3c(c2C)-c2nn(Cc4cccc(Cl)c4)cc2CC3)c1 | active: -92%
73 | COc1ccc(/C=C/C(=O)Nc2ccc3c(c2)CCC3)cc1OC | inactive: -31.8%
74 | Cc1cccc(NC(=O)c2nc[nH]c2C(=O)Nc2cc(Br)ccc2F)c1 | active: -88.4%
75 | C=CCNC(=O)N1CCC(n2nccc2NC(=O)CCc2ccccc2)CC1 | inactive: 17.6%
76 | COC(=O)c1cccc(NC(=O)c2cnoc2C)c1 | inactive: -17.7%
77 | COc1ccc(C)cc1NC(=O)C1COc2ccccc2C1 (stereo not given) | inactive: -15.8%
78 | Cc1ccc(NC(=O)CCNS(=O)(=O)c2cccc3nonc23)cc1 | inconclusive: -48.5%
79 | C=CCN1C(=O)c2ccc(C(=O)N3CCC(C(N)=O)CC3)cc2C1=O | active: -86.1%
80 | COc1ccc(NC(=O)CCc2nnc3ccc(NCc4ccco4)nn23)cc1 | inconclusive: -53.2%
81 | CC(CCC(=O)O)C1CCC2C3CCC4C[C@H](O)CCC4(C)C3CC(=O)C12C (stereo not given in full) | inconclusive: -54.1%
82 | Cc1cccc(NS(=O)(=O)c2cccc(C(=O)NCC3(N4CCOCC4)CCCCC3)c2)c1 | inactive: -11%
83 | Cc1c(C(=O)N2CCCC2)c(S(=O)(=O)N2CCN(c3ccccc3F)CC2)c(C)n1C | inconclusive: -40.1%
84 | COC(=O)c1ccc(NC(=O)COc2cccc3c2OC(C)(C)C3)cc1 | inactive: -3.98%
85 | O=C(CN1C(=O)CCC1=O)Nc1ccc(Br)cc1 | inconclusive: -40.5%
